Hit rate of the full screen: of about 390,000 compounds, about 4,000 (1%) were called active. The inconclusive results got no clear call from the source; some entries with a clear call stand among them for comparison. The call rests on the fitted dose curve; in most records, active means well fitted inhibition curve with a large enough effect; inconclusive means small, poorly fitted or top-dose-only effect, or another doubt; inactive means no such curve, though single readings can be large or run the other way. Potencies beside an inconclusive call are fits to weak or partial responses and may not hold up.
molecular target: DNA polymerase iota (Homo sapiens) (UniProt Q9UNA4); experiment: qHTS for Inhibitors of Polymerase Iota; conditions: Pol iota fluorescent replication assay, 10 min; series mostly up to 115 µM; activity, negative = inhibition: at the top concentration
Outline: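 Pol iota at 10 nM preincubated 15 min with compounds at room temperature; reaction started with fluorescent substrate, 50 nM final. Fluorescence read kinetically at 0 and 10 min; buffer-only wells as negative control.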
Potency means the concentration at half of the fitted maximal effect.

Chains of the proteins cited; added tags and fusions are not shown. Lines headed by an entry give the natural chain unless they say otherwise; changes in a name come on top.
UniProt Q9UNA4: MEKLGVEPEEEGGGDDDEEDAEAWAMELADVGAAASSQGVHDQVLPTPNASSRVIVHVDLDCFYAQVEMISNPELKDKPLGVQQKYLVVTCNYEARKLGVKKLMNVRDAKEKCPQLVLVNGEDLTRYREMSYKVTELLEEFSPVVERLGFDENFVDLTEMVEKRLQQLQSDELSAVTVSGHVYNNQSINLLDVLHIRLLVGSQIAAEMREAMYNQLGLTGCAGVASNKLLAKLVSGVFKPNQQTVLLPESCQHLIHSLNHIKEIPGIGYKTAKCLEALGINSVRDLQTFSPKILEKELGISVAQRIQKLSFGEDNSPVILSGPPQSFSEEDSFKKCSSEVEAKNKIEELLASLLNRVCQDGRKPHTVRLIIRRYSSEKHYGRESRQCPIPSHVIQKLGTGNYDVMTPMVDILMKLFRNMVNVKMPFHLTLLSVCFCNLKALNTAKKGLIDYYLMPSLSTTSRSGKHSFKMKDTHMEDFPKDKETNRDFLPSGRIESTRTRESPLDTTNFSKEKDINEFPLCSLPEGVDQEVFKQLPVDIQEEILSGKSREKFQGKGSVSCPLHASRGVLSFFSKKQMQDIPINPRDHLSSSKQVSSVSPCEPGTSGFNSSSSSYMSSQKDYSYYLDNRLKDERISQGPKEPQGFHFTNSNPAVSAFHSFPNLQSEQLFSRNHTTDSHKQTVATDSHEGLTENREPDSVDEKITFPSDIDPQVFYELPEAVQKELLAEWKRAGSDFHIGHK

| SMILES | Potency | activity, negative = inhibition |
| --- | --- | --- |
| Cc1ccc(-c2nnc(Nc3ccc(Cl)c(Cl)c3)c3ccccc23)cc1S(=O)(=O)N(C)C | inconclusive: 89.1 µM [inhibitor, single point] | – |
| CCOC(=O)c1c(C)oc2c1c(C=NCCC(=O)O)c(O)c1ccccc12 | inconclusive: 7.94 µM [inhibitor, partial curve] | – |
| Nc1nonc1-c1nc2ccccc2n1CC(=O)N/N=C/c1ccc(-c2cccc(C(=O)O)c2)o1 | active: 17.8 µM | – |
| CCOC(=O)c1cc(C#N)c(=S)[nH]c1C | inconclusive: 20 µM [inhibitor, single point] | – |
| COc1cccc(/C=N/NC(=O)c2cc(-c3cccn3C)n[nH]2)c1 | inconclusive: 35.5 µM [inhibitor, partial curve, poor fit] | – |
| CC(Oc1ccc(Cl)cc1Cl)C(=O)Nc1ccncc1 (stereo not drawn) | inconclusive: 39.8 µM [inhibitor, single point] | – |
| Cc1ccc(Nc2ncnc3onc(C)c23)cc1Cl | – | inactive: 3.98% |
| COc1ccc(NC(=O)c2ccc3nc[nH]c3c2)cc1 | inconclusive: 56.2 µM [inhibitor, partial curve, poor fit] | – |
| CCc1ccccc1NC(=O)Cc1cn(C)c2ccccc12 | inconclusive: 100 µM [inhibitor, single point] | – |
| CN(CCO)c1nc2c(c(=O)n(Cc3ccc(Cl)cc3)c(=O)n2C)n1C | – | inactive: 26.9% |
| O=c1c(-c2ccc(Cl)cc2)coc2c(CN3CCOCC3)c(O)ccc12 | – | inactive: 0.629% |
| COc1ccc(OC)c(-c2csc(NC(=O)c3ccc(F)cc3)n2)c1 | inconclusive: 25.1 µM [inhibitor, partial curve, poor fit] | – |
| CC(C)(C)OC(=O)CNC(=O)c1[nH]cnc1C(=O)N[C@@H](CCCCNC(=O)OC(C)(C)C)C(=O)OC(C)(C)C | inconclusive: 39.8 µM [inhibitor, single point] | – |
| CC(=O)Nc1cc(NC(C)=O)cc(C(=O)OCC(=O)N(c2ccccc2)C2CCS(=O)(=O)C2)c1 (stereo not drawn) | inconclusive: 56.2 µM [inhibitor, partial curve, poor fit] | – |
| CCOC(=O)c1cnc2ccc(OC)cc2c1NCCc1ccccc1 | inconclusive: 89.1 µM [inhibitor, single point] | – |
| Cn1c(=O)c2c(SCC(=O)NCc3ccco3)nc(-c3ccccc3)nc2n(C)c1=O | inconclusive: 89.1 µM [inhibitor, single point] | – |
| COc1ccc(N2CC(NC(=O)COc3ccccc3)CC2=O)cc1OC (stereo not drawn) | inconclusive: 89.1 µM [inhibitor, single point] | – |
| Cc1ccccc1N1C(=O)C2ON(c3ccccc3)C(c3ccco3)C2C1=O (stereo not drawn) | inconclusive: 89.1 µM [inhibitor, partial curve, poor fit] | – |
| C[C@@H](OC(=O)c1[nH]cnc1C(=O)N1CCN(C(=O)OC(C)(C)C)CC1)c1ccccc1 | inconclusive: 44.7 µM [inhibitor, full curve, poor fit] | – |

| SMILES | Potency | activity, negative = inhibition |
| --- | --- | --- |
| O=C(NC(=S)Nc1cccc2cc(O)ccc12)c1ccccc1Br | inconclusive: 10 µM [inhibitor, partial curve, poor fit] | – |
| Nc1cccc(CCc2nc3ccccc3[nH]2)c1 | inconclusive: 89.1 µM [inhibitor, single point] | – |
| COc1cc(Cl)c(C)cc1NC(=O)CSc1nnc(-c2ccco2)n1CC(C)C | inconclusive: 56.2 µM [inhibitor, partial curve, poor fit] | – |
| CCOC(=S)SCC(=O)N1CCc2cc(OC)ccc2C1C1C(=O)CCCC1=O (stereo not drawn) | inconclusive: 3.55 µM [inhibitor, partial curve, poor fit] | – |
| C=CCN1C(=O)N/C(=C/c2ccccc2OCC(=O)Nc2ccc(F)cc2)C1=O | inconclusive: 22.4 µM [inhibitor, full curve, poor fit] | – |
| COC(=O)C1ON2OC(C(=O)OC)C(C(=O)OC)C2C1CC(C)=O (stereo not drawn) | inconclusive: 79.4 µM [inhibitor, partial curve] | – |
| CCc1ccc(-n2nc(C)c3c(C)cc(=O)n(CC(=O)N4CCCc5ccccc54)c32)cc1 | – | inactive: 0.98% |
| CCOC(=O)N1CCN(c2c(NCCCN(CC)c3cccc(C)c3)c(=O)c2=O)CC1 | inconclusive: 89.1 µM [inhibitor, single point] | – |
| CC(=O)NC1C(=O)N(CCN2CCOCC2)c2ccc(F)cc21 (stereo not drawn) | inconclusive: 1.58 µM [inhibitor, partial curve, poor fit] | – |
| O=C(NCc1ccco1)c1ccc(COc2ccccc2Cl)cc1 | inconclusive: 2.82 µM [inhibitor, full curve, poor fit] | – |
| CC1CN(C(=O)C(C)OC(=O)c2ccc3ncsc3c2)CC(C)O1 (stereo not drawn) | inconclusive: 25.1 µM [inhibitor, partial curve, poor fit] | – |
| Cc1nnc2sc(-c3ccc(NC(=O)CSc4ccc(Cl)cc4)cc3)nn12 | inconclusive: 20 µM [inhibitor, partial curve, poor fit] | – |
| O=C(c1ccccc1Cl)N1c2ncnn2C2(CCCCC2)[C@@H]2CCCC[C@@H]21 | – | inactive: 4.68% |
| NC(=O)c1ccc(N2CCN(c3ccc(O)cc3)CC2)c([N+](=O)[O-])c1 | inconclusive: 50.1 µM [inhibitor, partial curve, poor fit] | – |
| O=[N+]([O-])c1cc(Cl)ccc1N1CCOCC1 | inconclusive: 89.1 µM [inhibitor, partial curve, poor fit] | – |
| Cc1cccc(N2CCN(S(=O)(=O)c3ccc4c(c3)CCN4C(=O)CCC(=O)O)CC2C)c1 (stereo not drawn) | inconclusive: 22.4 µM [inhibitor, full curve, poor fit] | – |
| CCC(Sc1nc2ccsc2c(=O)n1Cc1ccc(C(=O)O)cc1)C(=O)Nc1ccc(C)c(Cl)c1 (stereo not drawn) | inconclusive: 56.2 µM [inhibitor, partial curve, poor fit] | – |
| O=C(O)CNC(=O)CC1S/C(=N/N=C2\CSC(=O)N2)NC1=O (stereo not drawn) | inconclusive: 10 µM [inhibitor, partial curve, poor fit] | – |
| CCOC(=O)c1c(NC(C)=O)c2c3c(sc2n1Cc1nc(-c2cccc(Cl)c2)oc1C)CCCC3 | inconclusive: 89.1 µM [inhibitor, single point] | – |

Laid out differently: results already given.
SMILES	Potency	activity, negative = inhibition
Nc1cccc(CCc2nc3ccccc3[nH]2)c1	inconclusive: 89.1 µM [inhibitor, single point]	–
COc1cc(Cl)c(C)cc1NC(=O)CSc1nnc(-c2ccco2)n1CC(C)C	inconclusive: 56.2 µM [inhibitor, partial curve, poor fit]	–
CCOC(=S)SCC(=O)N1CCc2cc(OC)ccc2C1C1C(=O)CCCC1=O (stereo not drawn)	inconclusive: 3.55 µM [inhibitor, partial curve, poor fit]	–
